Laboratory results taken from the supplement of paper PMC8728848.
This is one part of the list.

Tests used:
Experiment in all cases: glycan array binding signal (z-score within array); higher = stronger binding
Details in all cases: glycan notation: IUPAC condensed, linker removed
[1] = biological target: Neu5Ac(a2-3)Gal(b1-4)GlcNAc(b1-2)[Neu5Ac(a2-3)Gal(b1-4)GlcNAc(b1-4)]Man(a1-3)[GlcNAc(b1-4)][Neu5Ac(a2-3)Gal(b1-4)GlcNAc(b1-2)[Neu5Ac(a2-3)Gal(b1-4)GlcNAc(b1-6)]Man(a1-6)]Man(b1-4)GlcNAc(b1-4)GlcNAc
Procedure, shortened: (§1)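 Columns mapping to the same glycan were averaged after glycan names were converted to IUPAC-condensed notation. The data come from 3228 arrays in the Consortium for Functional Glycomics database, limited to those with an available protein sequence. Binding is reported as a within-array Z-score averaged across arrays of one protein sequence and across linkers.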

[2] = biological target: Neu5Ac(a2-3)Gal(b1-4)GlcNAc(b1-2)[Neu5Ac(a2-3)Gal(b1-4)GlcNAc(b1-4)]Man(a1-3)[GlcNAc(b1-4)][Neu5Ac(a2-3)Gal(b1-4)GlcNAc(b1-4)Man(a1-6)]Man(b1-4)GlcNAc(b1-4)GlcNAc
Procedure, shortened: as §1

[3] = biological target: Neu5Ac(a2-3)Gal(b1-4)GlcNAc(b1-2)[Neu5Ac(a2-3)Gal(b1-4)GlcNAc(b1-6)]Man(a1-6)[Neu5Ac(a2-3)Gal(b1-4)GlcNAc(b1-2)Man(a1-3)][GlcNAc(b1-4)]Man(b1-4)GlcNAc(b1-4)GlcNAc
Procedure, shortened: as §1

[4] = biological target: Neu5Ac(a2-3)Gal(b1-4)GlcNAc(b1-3)Gal
Procedure, shortened: as §1

[5] = biological target: Neu5Ac(a2-3)Gal(b1-4)GlcNAc(b1-3)Gal(b1-3)GlcNAc
Procedure, shortened: as §1

[6] = biological target: Neu5Ac(a2-3)Gal(b1-4)GlcNAc(b1-3)Gal(b1-4)GlcNAc
Procedure, shortened: as §1

[7] = biological target: Neu5Ac(a2-3)Gal(b1-4)GlcNAc(b1-3)Gal(b1-4)GlcNAc(b1-2)Man(a1-3)[Neu5Ac(a2-3)Gal(b1-4)GlcNAc(b1-3)Gal(b1-4)GlcNAc(b1-2)Man(a1-6)]Man(b1-4)GlcNAc(b1-4)GlcNAc
Procedure, shortened: as §1

[8] = biological target: Neu5Ac(a2-3)Gal(b1-4)GlcNAc(b1-3)Gal(b1-4)GlcNAc(b1-3)Gal(b1-4)GlcNAc
Procedure, shortened: as §1

[9] = biological target: Neu5Ac(a2-3)Gal(b1-4)GlcNAc(b1-3)Gal(b1-4)GlcNAc(b1-3)Gal(b1-4)GlcNAc(b1-2)Man(a1-3)[Neu5Ac(a2-3)Gal(b1-4)GlcNAc(b1-3)Gal(b1-4)GlcNAc(b1-3)Gal(b1-4)GlcNAc(b1-2)Man(a1-6)]GalNAc
Procedure, shortened: as §1

[10] = biological target: Neu5Ac(a2-3)Gal(b1-4)GlcNAc(b1-3)Gal(b1-4)GlcNAc(b1-3)GalNAc
Procedure, shortened: as §1

[11] = biological target: Neu5Ac(a2-3)Gal(b1-4)GlcNAc(b1-3)Gal(b1-4)GlcNAc(b1-3)[Neu5Ac(a2-3)Gal(b1-4)GlcNAc(b1-3)Gal(b1-4)GlcNAc(b1-6)]GalNAc
Procedure, shortened: as §1

[12] = biological target: Neu5Ac(a2-3)Gal(b1-4)GlcNAc(b1-3)Gal(b1-4)GlcNAc(b1-6)[Gal(b1-3)]GalNAc
Procedure, shortened: as §1

[13] = biological target: Neu5Ac(a2-3)Gal(b1-4)GlcNAc(b1-3)Gal(b1-4)[Fuc(a1-3)]GlcNAc
Procedure, shortened: as §1

[14] = biological target: Neu5Ac(a2-3)Gal(b1-4)GlcNAc(b1-3)GalNAc
Procedure, shortened: as §1

[15] = biological target: Neu5Ac(a2-3)Gal(b1-4)GlcNAc(b1-3)[Neu5Ac(a2-3)Gal(b1-4)GlcNAc(b1-6)]GalNAc
Procedure, shortened: as §1

[16] = biological target: Neu5Ac(a2-3)Gal(b1-4)GlcNAc(b1-6)GalNAc
Procedure, shortened: as §1

[17] = biological target: Neu5Ac(a2-3)Gal(b1-4)GlcNAc(b1-6)[Gal(b1-3)]GalNAc
Procedure, shortened: as §1

[18] = biological target: Neu5Ac(a2-3)Gal(b1-4)GlcNAc(b1-6)[Neu5Ac(a2-3)Gal(b1-3)]GalNAc
Procedure, shortened: as §1

[19] = biological target: Neu5Ac(a2-3)Gal(b1-4)GlcNAc6S
Procedure, shortened: as §1

[20] = biological target: Neu5Ac(a2-3)Gal(b1-4)[Fuc(a1-3)]GlcNAc
Procedure, shortened: as §1

[21] = biological target: Neu5Ac(a2-3)Gal(b1-4)[Fuc(a1-3)]GlcNAc(b1-2)Man
Procedure, shortened: as §1

[22] = biological target: Neu5Ac(a2-3)Gal(b1-4)[Fuc(a1-3)]GlcNAc(b1-3)Gal
Procedure, shortened: as §1

[23] = biological target: Neu5Ac(a2-3)Gal(b1-4)[Fuc(a1-3)]GlcNAc(b1-3)Gal(b1-4)GlcNAc
Procedure, shortened: as §1

[24] = biological target: Neu5Ac(a2-3)Gal(b1-4)[Fuc(a1-3)]GlcNAc(b1-3)Gal(b1-4)[Fuc(a1-3)]GlcNAc(b1-3)Gal(b1-4)[Fuc(a1-3)]GlcNAc
Procedure, shortened: as §1

[25] = biological target: Neu5Ac(a2-3)Gal(b1-4)[Fuc(a1-3)]GlcNAc(b1-3)GalNAc
Procedure, shortened: as §1

[26] = biological target: Neu5Ac(a2-3)Gal(b1-4)[Fuc(a1-3)]GlcNAc(b1-6)[Gal(b1-3)]GalNAc
Procedure, shortened: as §1

[27] = biological target: Neu5Ac(a2-3)Gal(b1-4)[Fuc(a1-3)]GlcNAc(b1-6)[Neu5Ac(a2-3)Gal(b1-3)]GalNAc
Procedure, shortened: as §1

[28] = biological target: Neu5Ac(a2-3)Gal(b1-4)[Fuc(a1-3)]GlcNAc6S
Procedure, shortened: as §1

[29] = biological target: Neu5Ac(a2-3)Gal6S(b1-4)GlcNAc
Procedure, shortened: as §1

[30] = biological target: Neu5Ac(a2-3)Gal6S(b1-4)[Fuc(a1-3)]GlcNAc
Procedure, shortened: as §1

[31] = biological target: Neu5Ac(a2-3)GalNAc
Procedure, shortened: as §1

[32] = biological target: Neu5Ac(a2-3)GalNAc(b1-4)GlcNAc
Procedure, shortened: as §1

[33] = biological target: Neu5Ac(a2-3)[GalNAc(b1-4)]Gal(b1-4)Glc
Procedure, shortened: as §1

[34] = biological target: Neu5Ac(a2-3)[GalNAc(b1-4)]Gal(b1-4)GlcNAc
Procedure, shortened: as §1

[35] = biological target: Neu5Ac(a2-3)[GalNAc(b1-4)]Gal(b1-4)GlcNAc(b1-3)GalNAc
Procedure, shortened: as §1

[36] = biological target: Neu5Ac(a2-3)[Neu5Ac(a2-6)]GalNAc
Procedure, shortened: as §1

[37] = biological target: Neu5Ac(a2-6)Gal
Procedure, shortened: as §1

[38] = biological target: Neu5Ac(a2-6)Gal(b1-3)GlcNAc(b1-3)[Gal(b1-4)GlcNAc(b1-6)]Gal(b1-4)Glc
Procedure, shortened: as §1

[39] = biological target: Neu5Ac(a2-6)Gal(b1-4)Glc
Procedure, shortened: as §1

[40] = biological target: Neu5Ac(a2-6)Gal(b1-4)GlcNAc
Procedure, shortened: as §1

[41] = biological target: Neu5Ac(a2-6)Gal(b1-4)GlcNAc(b1-2)Man
Procedure, shortened: as §1

[42] = biological target: Neu5Ac(a2-6)Gal(b1-4)GlcNAc(b1-2)Man(a1-3)Man(b1-4)GlcNAc(b1-4)GlcNAc
Procedure, shortened: as §1

[43] = biological target: Neu5Ac(a2-6)Gal(b1-4)GlcNAc(b1-2)Man(a1-3)[Gal(b1-4)GlcNAc(b1-2)Man(a1-6)]Man(b1-4)GlcNAc(b1-4)GlcNAc
Procedure, shortened: as §1

[44] = biological target: Neu5Ac(a2-6)Gal(b1-4)GlcNAc(b1-2)Man(a1-3)[GlcNAc(b1-2)Man(a1-6)]Man(b1-4)GlcNAc(b1-4)GlcNAc
Procedure, shortened: as §1

[45] = biological target: Neu5Ac(a2-6)Gal(b1-4)GlcNAc(b1-2)Man(a1-3)[GlcNAc(b1-4)][Neu5Ac(a2-6)Gal(b1-4)GlcNAc(b1-2)Man(a1-6)]Man(b1-4)GlcNAc(b1-4)GlcNAc
Procedure, shortened: as §1

B1: SJCP3842 (Schistosoma japonicum) (protein)
chain: MFKMRIINLVNISTVLLLINLLQTKSRLVGKENGFMLTVSIYGAQLSDKMTSVPVSWTIDYEDPEKSAFKKLVTDSCDTFSEYVKSQIPKGSVDGQCTSHIFQRPGSGSGVSISLTLSFIYVDVTQPDTVALKTELEKHFANFVTIHSHKITQAQFRINQKAIVIPTGDKDAIDGSKWKIIAIIALVALAIVVIGGFIYICVK
glycan array binding signal (z-score) [1]: 0.191 | glycan array binding signal (z-score) [2]: -0.064 | glycan array binding signal (z-score) [3]: 0.462 | glycan array binding signal (z-score) [4]: -0.718 | glycan array binding signal (z-score) [5]: -0.358 | glycan array binding signal (z-score) [6]: 1.89 | glycan array binding signal (z-score) [7]: -0.047 | glycan array binding signal (z-score) [8]: -0.929 | glycan array binding signal (z-score) [9]: 1.85 | glycan array binding signal (z-score) [10]: -0.893 | glycan array binding signal (z-score) [11]: -0.177 | glycan array binding signal (z-score) [12]: -0.097 | glycan array binding signal (z-score) [13]: -0.737 | glycan array binding signal (z-score) [14]: 0.873 | glycan array binding signal (z-score) [15]: -1.23 | glycan array binding signal (z-score) [16]: -0.908 | glycan array binding signal (z-score) [17]: -0.78 | glycan array binding signal (z-score) [18]: -0.93 | glycan array binding signal (z-score) [19]: -1.01 | glycan array binding signal (z-score) [20]: 0.037 | glycan array binding signal (z-score) [21]: -1.01 | glycan array binding signal (z-score) [22]: 1.63 | glycan array binding signal (z-score) [23]: 0.531 | glycan array binding signal (z-score) [24]: -0.789 | glycan array binding signal (z-score) [25]: 2.37 | glycan array binding signal (z-score) [26]: 1.06 | glycan array binding signal (z-score) [27]: -0.822 | glycan array binding signal (z-score) [28]: 0.687 | glycan array binding signal (z-score) [29]: 0.092 | glycan array binding signal (z-score) [30]: -1.76 | glycan array binding signal (z-score) [31]: 1.51 | glycan array binding signal (z-score) [32]: 0.42 | glycan array binding signal (z-score) [33]: -0.08 | glycan array binding signal (z-score) [34]: -0.779 | glycan array binding signal (z-score) [35]: 0.014 | glycan array binding signal (z-score) [36]: -0.29 | glycan array binding signal (z-score) [37]: -0.689 | glycan array binding signal (z-score) [38]: 0.57 | glycan array binding signal (z-score) [39]: -0.376 | glycan array binding signal (z-score) [40]: -1.26 | glycan array binding signal (z-score) [41]: 0.071 | glycan array binding signal (z-score) [42]: -0.689 | glycan array binding signal (z-score) [43]: -0.673 | glycan array binding signal (z-score) [44]: -0.493 | glycan array binding signal (z-score) [45]: -0.194
